Source: PubChem BioAssay AID2685 (National Center for Advancing Translational Sciences (NCATS), 2010)
Hit rate of the full screen: of about 320,000 compounds, about 2,100 (0.66%) were called active. Inconclusive means that the source gave no clear call. Such entries were picked first, then a sample of the others. Calls come from the whole dose curve; as a rule, active = well fitted inhibition curve with a large enough effect in the signal ratio, with a control signal flat (not every such curve was filed as active); inconclusive = small, poorly fitted or top-dose-only effect, or effect the other way, or a change in a side signal; inactive = flat fitted curve, though single readings scatter; the % refers to the signal ratio. A potency beside an inconclusive call is a rough fit, not a confirmed value.

Test: qHTS Assay for Lipid Storage Modulators in Drosophila S3 Cells
Details: BODIPY lipid droplet fluorescence, 18-24 h, cells fed with added oleic acid; lipid storage change, negative = inhibition: at 46.1 µM (top of the series) unless noted
Summary of the method: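 Drosophila S3 cells loaded with oleic acid (400 uM, as added) and compounds at several concentrations; lipid droplets imaged by 488-nm laser-scanning cytometry, 500–530 nm intensity and object ratio to cell channel. Percent activity normalized to 20 uM Triacsin C.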
% is set by controls: 0 for no effect and ±100 for the full control effect; potency is the fitted concentration of half-maximal effect.

Structure (SMILES) | lipid storage change, negative = inhibition | Potency
COc1cccc(CN2CCNC(=O)C2CC(=O)N(C)CC2CCOCC2)c1 (stereo not drawn) | inconclusive: 20.7% | 
O=C(c1ccco1)N1CCN(S(=O)(=O)c2ccc(S(=O)(=O)NC3CCCCC3)cc2)CC1 | inconclusive: 22.2% | 
Cc1cc(OCCN2CCOCC2)ccc1C(C)C |  | inconclusive: 0.092 µM [activator, full curve, poor fit]
COc1ccc(-c2nn(CCC(=O)O)cc2CCC(=O)O)cc1 |  | inconclusive: 5.8 µM [falling, full curve]
COc1ccc(C2=NN(C(=O)c3ccccc3)C(c3ccc(OC)c(OC)c3)C2)c(O)c1 (stereo not drawn) | inconclusive: 212% | 
N=c1c2c(-c3ccccc3)c(-c3ccccc3)n(Cc3ccco3)c2ncn1Cc1ccccc1 |  | inconclusive: 0.13 µM [rising, full curve, poor fit]
Cc1ccc(-c2nn(C)c(=O)c3ccccc23)cc1CNC(=O)NC1CCCCC1 | inconclusive: 13.1% | 
Cc1ccc(CNC(=O)c2cncc(Br)c2)cc1 | inconclusive: -33.9% [at 0.00295 µM] | 
Cc1c(OCC(=O)NCc2ccccn2)ccc2c(-c3ccccc3)cc(=O)oc12 |  | inconclusive: 4.61 µM [falling, full curve]
Cc1ccc(S(=O)(=O)N(CC(=O)O)Cc2ccco2)cc1 | inactive: -18.7% | 
Cc1cc(C(=O)N[C@H](c2ccccc2)[C@@]2(C)C[C@@H]2[C@@H](C)C(=O)Nc2ccc3ccccc3c2)n(C)n1 | inconclusive: 16.8% | 
Cc1ccc(C(=O)NC(=S)Nc2ccc(NC(=O)c3cccc(Cl)c3)cc2)cc1 | inconclusive: -28% | 
COc1ccccc1CNC(=O)Cc1ccc(C)cc1 | inconclusive: -16.5% [at 9.22 µM] | 
Cc1nc(-c2cccc(S(=O)(=O)N3CC(C)OC(C)C3)c2)cs1 (stereo not drawn) | inconclusive: 32.3% | 
Cc1ccc(NC(=O)C2CCCN2S(=O)(=O)c2ccc3c(c2)n(C)c(=O)c(=O)n3C)c(C)c1 (stereo not drawn) |  | inconclusive: 0.651 µM [activator, full curve, poor fit]
CC1=C(C(=O)NCc2ccccc2)C(c2cccs2)NC(=S)N1 (stereo not drawn) | inconclusive: -15.1% | 
CCC(C)N1C(=O)S/C(=C/c2ccc(N3CCOCC3)cc2C)C1=O (stereo not drawn) | inactive: 11.5% | 
Cc1ccc(CNC(=O)CCC(=O)N2CC(C)Oc3ccc(Cl)cc32)cc1 (stereo not drawn) |  | inconclusive: 29.1 µM [falling, single point]
Cc1ccc(OCC(=O)NS(=O)(=O)c2ccc(Cl)cc2)cc1 | inconclusive: -41.1% | 
COc1ccc(-c2cc(OC)c3ccccc3n2)cc1 |  | inconclusive: 10.3 µM [activator, partial curve]
O=[N+]([O-])c1cccc(S(=O)(=O)Nc2ccc(Cc3ccncc3)cc2)c1 | inconclusive: 11.9% | 
Cc1cccc(N2C(=O)c3cccc(Oc4ccc(Cl)cc4)c3C2=O)c1 |  | inconclusive: 2.31 µM [activator, partial curve]
CCC(C(=O)OCC(=O)N1C(C)CCCC1C)c1ccccc1 (stereo not drawn) | inactive: -24.9% | 
CCC(C)SCC(=O)Nc1ccc(S(=O)(=O)N2CCOCC2)cc1OC (stereo not drawn) | inconclusive: -10.2% | 
CCOc1cccc(NC(=O)Cc2cccs2)c1 |  | inconclusive: 0.92 µM [activator, full curve]
CC(C)(C)n1cnc(C(N)=O)c1N | inconclusive: -7.83% | 

3 of these compounds in another layout:
COc1ccc(-c2cc(OC)c3ccccc3n2)cc1
  Potency: inconclusive: 10.3 µM [activator, partial curve]
O=[N+]([O-])c1cccc(S(=O)(=O)Nc2ccc(Cc3ccncc3)cc2)c1
  lipid storage change, negative = inhibition: inconclusive: 11.9%
Cc1cccc(N2C(=O)c3cccc(Oc4ccc(Cl)cc4)c3C2=O)c1
  Potency: inconclusive: 2.31 µM [activator, partial curve]

Following part.

Structure (SMILES) | lipid storage change, negative = inhibition | Potency
COc1ccccc1CNC1CCN(Cc2ccccc2)CC1 | inconclusive: -8.57% | 
Cc1cc(=O)oc2c1c(C)nn2-c1nn[nH]n1 |  | inconclusive: 3.26 µM [falling, full curve]
COc1ccc2cc(C(=O)N/N=C/c3cc(OC)c(OC)c(OC)c3)[nH]c2c1 |  | inconclusive: 29.1 µM [activator, single point]
O=C(COc1ccccc1)Nc1nnc(S(=O)(=O)N2CCCCCC2)s1 |  | inconclusive: 4.11 µM [falling, single point]
CCCCSc1nc(NCc2ccco2)c2c3c(sc2n1)COC(C)(C)C3 |  | inconclusive: 1.3 µM [activator, partial curve]
CCOc1ccc2c(c1)c1nnc(SCC(=O)N3CCCCC3C)nc1n2C (stereo not drawn) | inconclusive: 43.4% | 
CCOC(=O)N1CCN(C(=O)c2nn(C)c3c2CSc2ccccc2-3)CC1 |  | inconclusive: 8.2 µM [falling, partial curve]
CCCCc1cc2c(c(NC(=O)CC)n1)c(=O)oc1ccccc12 | inconclusive: 73.8% | 
Cc1noc(C)c1C(=O)OCC(=O)Nc1cccc(S(=O)(=O)N(C)C)c1 | inactive: 3.18% | 
Cc1ccsc1C(=O)NNC(=O)c1ccc(NS(=O)(=O)c2cccs2)cc1 | inconclusive | 
Cn1[nH]c(C(F)(F)F)c(C=Nc2ccc(Cl)cc2)c1=O | inconclusive: 1.45% | 
O=C(N/N=C/c1ccc[nH]1)c1c[nH]c2ccccc12 |  | inconclusive: 11.6 µM [activator, single point]
COc1ccc(C2CC(c3cccc(OC)c3OC)n3nnnc3N2)cc1 (stereo not drawn) | inconclusive: -3.37% | 
CN(C)c1ccc(C=NC(CO)C(O)c2ccc([N+](=O)[O-])cc2)cc1 (stereo not drawn) | inconclusive: 9.77% | 
Cc1ccnc(NC(c2ccccc2O)c2oc(CO)cc(=O)c2O)c1 (stereo not drawn) | inconclusive: 9.63% | 
CC(Sc1nnc(-c2cccnc2)n1N)C(=O)NCCC1=CCCCC1 (stereo not drawn) | inconclusive | 
N#Cc1ccccc1OCC(=O)NC(=O)NCc1ccccc1 | inconclusive: 31.8% | 
CCOc1cc(/C=N/NC(=O)CN2CCCCC2)ccc1OCc1ccccc1 | inconclusive: -14.4% | 
Cc1csc(SCC(=O)Nc2nnc(C)s2)n1 |  | inconclusive: 6.51 µM [activator, single point]
Cc1c(-c2ccnc3cc(C(=O)O)nn23)cnn1C |  | inconclusive: 23.1 µM [activator, single point]
COc1ccccc1C(=O)Nc1ccc(S(=O)(=O)N2CCCCC2)cc1 | inconclusive: -15.4% | 
Cc1nc(SCCC(=O)O)c2cc(-c3ccccc3)sc2n1 | inconclusive: -10.7% | 
CCCN(CCC)S(=O)(=O)c1ccc(Cl)c([N+](=O)[O-])c1 | inconclusive: -29% [at 9.22 µM] | 
CCCCC(NC(=O)Cc1c(C)c2cc3c(-c4ccccc4)coc3c(C)c2oc1=O)C(=O)O (stereo not drawn) |  | inconclusive: 29.1 µM [activator, single point]
COC(=O)c1c(NC(=O)C(Cl)Cl)sc2c1C(C(=O)OC)CC2 (stereo not drawn) | inconclusive: -23.4% | 
COCCCNC(=S)Nc1ccc(C)cc1[N+](=O)[O-] | inconclusive: 7.89% | 

Some of the entries so far, in CSV form:
Structure (SMILES),"lipid storage change, negative = inhibition",Potency
CCC(C)SCC(=O)Nc1ccc(S(=O)(=O)N2CCOCC2)cc1OC (stereo not drawn),inconclusive: -10.2%,
CCOc1cccc(NC(=O)Cc2cccs2)c1,,"inconclusive: 0.92 µM [activator, full curve]"
CC(C)(C)n1cnc(C(N)=O)c1N,inconclusive: -7.83%,

Additional entries follow:

Structure (SMILES) | lipid storage change, negative = inhibition | Potency
CC(=O)N1CCOc2ccc(S(=O)(=O)N3CCCC(C)C3)cc21 (stereo not drawn) | inconclusive: -20.9% | 
CC1CCN(C(=O)Cn2cnc3c2c(=O)n(C)c(=O)n3C)c2ccccc2S1 (stereo not drawn) |  | inconclusive: 29.1 µM [falling, single point]
O=C(O)C1CCC(=O)N1Cc1ccc(F)cc1 (stereo not drawn) |  | inconclusive: 29.1 µM [falling, single point]
Cc1cccc(-c2nnc3n2N=C(c2ccccc2Br)CS3)c1 | inconclusive: -21.8% | 
CCC(C(=O)NCCc1ccccc1)c1ccccc1 (stereo not drawn) |  | inconclusive: 29.1 µM [activator, partial curve, poor fit]
CCC(C)(C)NC(=O)C1CCN(S(=O)(=O)c2cccs2)CC1 | inconclusive: 15.2% | 
Cc1cc(=O)[nH]c(NN=C2CCC(C(C)(C)C)CC2)n1 (stereo not drawn) | inconclusive: 42.7% | 
CCc1nnc(NC(=O)COc2ccc3ccccc3c2)s1 | inconclusive: -58.4% | 
Cc1ccc(C)c2sc(N)nc12 | inconclusive: 41.5% | 
COc1ccc(OCc2nnc(SCC(=O)N3c4ccccc4Sc4ccc(Cl)cc43)o2)cc1 |  | inconclusive: 23.1 µM [falling, single point]
COc1ccc(NS(=O)(=O)c2cccc(C(=O)N/N=C(\C)c3cccnc3)c2)cc1 | inconclusive: -29.4% | 
Cc1ccc(C(C(=O)NCc2ccccc2)N(C(=O)c2csnn2)C2CC2)cc1 (stereo not drawn) | inconclusive: -9.05% | 
CCOC(=O)c1cnc(-n2nc(C)cc2C)[nH]c1=O | inconclusive: 21% | 
C=CCSc1nc2ccccc2[nH]1 | inconclusive: 77.3% | 
CCC(Sc1nc2cc3c(cc2c(=O)n1Cc1ccco1)OCO3)C(=O)Nc1cccc(OC)c1 (stereo not drawn) |  | inconclusive: 20.6 µM [falling, single point]
Cc1cccc(CSc2nc3ccncc3n2CC(=O)Nc2cc(C)cc(C)c2)c1 | inconclusive: -5.99% | 
O=C(NCCc1ccccc1F)C1CC(=O)N(c2ccccc2)C1 (stereo not drawn) | inconclusive: 35.1% | 
O=S(=O)(/C=C/c1ccccc1)N1CCN(Cc2ccccc2)CC1 | inconclusive: -49.4% [cytotoxic] [at 0.369 µM] | 
CCNC(=O)c1ccc(CSc2ccc(Cl)cc2)cc1 | inconclusive: 14.5% | 
CCN1CC(CN(C)Cc2nc(-c3ccc(C(F)(F)F)cc3)no2)CC1=O (stereo not drawn) |  | inconclusive: 23.1 µM [falling, single point]
O=C(Nc1ccccc1N1CCCCC1)C1CC(=O)N(c2ccccc2F)C1 (stereo not drawn) | inconclusive: 52.1% | 
O=C(Cc1ccc(F)cc1)Nc1nccs1 | inconclusive: -82.4% | 
Cc1nc(-c2ccc(NC(=O)C3CC3)cc2)cs1 | inconclusive: 17.5% | 
CS(=O)(=O)c1ccc(Cl)c(NC(=O)COC(=O)c2c(Cl)cccc2Cl)c1 | inconclusive: -56.8% | 
CN1C(C(=O)NCc2cccc(C(F)(F)F)c2)CC2Cn3c(nc4cc5ccccc5cc43)C21 (stereo not drawn) | inconclusive: 11.6% | 
COc1ccc(S(=O)(=O)N2CCN(C(=O)c3c(C)nn(-c4ccccc4)c3C)CC2)cc1 | inconclusive: 3.4% | 
